Assay results published in the supplement of paper PMC4604168 (melanoma cell lines).
The other results are listed elsewhere or left out. Many values rest on one well or one pass, so single values are uncertain.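 Imaging used 1,536-well plates; nuclei positive for cleaved PARP by antibody were divided by total DNA-stained nuclei to yield the apoptosis fraction. Doses for screening kept most cells viable, and cell lines differ markedly in resting and induced cleaved-PARP levels.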

Columns and labels:
Experiment in all cases: cleaved PARP positive nuclei fraction relative to DMSO control; melanoma cells; higher = more apoptosis
Conditions in all cases: library dose: low library concentration; 72 h
501Mel = test system: 501Mel
A101D = test system: A101D
A2058 = test system: A2058
A375 = test system: A375
C32 = test system: C32
CBRC013 = test system: CBRC013 (line from a melanoma biopsy)
CBRC014 = test system: CBRC014 (line from a melanoma biopsy)
CBRC016 = test system: CBRC016 (line from a melanoma biopsy)
CBRC017 = test system: CBRC017 (line from a melanoma biopsy)

Compound | cleaved PARP positive nuclei fraction (501Mel) [%] | cleaved PARP positive nuclei fraction (A101D) [%] | cleaved PARP positive nuclei fraction (A2058) [%] | cleaved PARP positive nuclei fraction (A375) [%] | cleaved PARP positive nuclei fraction (C32) [%] | cleaved PARP positive nuclei fraction (CBRC013) [%] | cleaved PARP positive nuclei fraction (CBRC014) [%] | cleaved PARP positive nuclei fraction (CBRC016) [%] | cleaved PARP positive nuclei fraction (CBRC017) [%]
CO[C@@H]1[C@H](N(C)C(=O)c2ccccc2)C[C@H]2O[C@]1(C)n1c3ccccc3c3c4c(c5c6ccccc6n2c5c31)C(=O)NC4 [Midostaurin] + COc1ccc2c(c1)CCC1C2CCC2(C)C(NCCCCCCN3C(=O)C=CC3=O)CCC12 [U73122] (first compound 0.08 µM, partner dose 0.4 µM) | 90.9 | 94.3 | 103 | 55.4 | 112 | 96.3 | 108 | 96.4 | 88.3
Cc1ccc(NC(=O)c2cccc(N(C)C)c2)cc1NC(=O)c1ccc(O)cc1 + CCc1ccc(CCOc2ccc(CC3SC(=O)NC3=O)cc2)nc1 [pioglitazone] (first compound 2 µM, partner dose 2 µM) | 90 | 72.2 | 63.8 | 80.5 | 76.9 | 82.8 | 110 | 72.7 | 101
C[C@@H]1CCN(C(=O)CC#N)C[C@@H]1N(C)c1ncnc2[nH]ccc12 + Oc1cc(-c2nc(-c3ccccc3)[nH]c2-c2ccncc2)ccc1Cl [L779450] (first compound 1 µM, partner dose 0.2 µM) | 209 | 116 | 271 | 169 | 144 | 187 | 99.3 | 84.9 | 156
OCCn1cc(-c2cnc3nnn(Cc4ccc5ncccc5c4)c3n2)cn1 + CCCCCCCCCCCC1=C(O)C(=O)C=C(O)C1=O [Embelin] (first compound 1 µM, partner dose 1.2 µM) | 36.3 | 152 | 71 | 62.8 | 96.2 | 116 | 82.1 | 55 | 232
